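Genome-wide siRNA knockdown in TC32 Ewing sarcoma cells, comparing luciferase light from an NR0B1-promoter reporter with a CMV-promoter reporter 48 hours after transfection. Each siRNA was applied at 20 nM. A z-score of the log NR0B1-over-CMV signal, less the median of siRNAs with the same seed; more negative means a stronger specific loss of the NR0B1 reporter.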

The strongest results of the screen are mostly left out here. Sequences are the guide (antisense) strand, without overhang.

strand,target gene,seed-corrected z-score
UUUUCAUAAUGCUUGGUGC,SDCBP,0.2352
UAAGCAUUGAGUCCCGAAG,HAX1,0.5982
UGAGCUAGUAAGGUCAUCG,PPP2R5A,-0.6873
AGUAUCGUCACGCUGCUGG,AZU1,-1.73
ACCGUUUAGUGUUAAUUCC,ZWILCH,0.8634
UCUGUUUUCAUUGAGGGAG,VSTM1,0.05823
AACAUGCCCAGGUUAAAGC,NAT6,-0.5832
UUCUGUGCCGGAACAAGUC,MYCBPAP,0.8242
UUCUCAAUGAUCUCUGUGC,C5orf46,-0.02039
UUGUCCAUCAUGGUAGAAG,PRICKLE4,-0.4115
UCCGUUUUCCUGUAGAUGG,STAG2,0.7456
UUACAAACCUAGUAAGUGG,REXO1L1P,-0.3785
UGGGCUGCUAAUAACAGGG,GCKR,0.07055
UGAGUCUCAAAACAAGCUG,GFI1B,-1.422
AUGCCUAUAGAAUUGGUGC,PTPRA,-0.6552
AGAGUUGCCGUUCUGAACG,HVCN1,-1.601
UAUUCUUGCAGGAAAAUUG,CD38,-0.3514
UUUUUCGUAAAAUUGCUUC,FAM184A,0.0874
UAGACAAUUGGAUAGACAG,LOC646999,0.1082
UGUUGUUAUAGAUACAUGU,COLCA1,-0.6744
UUCAUUGUAGUUAUCAUCC,NDNF,0.1279
UGUCCUUGCGUCUUGAACC,C2orf57,-1.546
UAGCCUCUAAGCAUUCUCU,LOC728730,0.02972
UUGGUGUAGAGAGCAUUCG,ANKRD27,-0.3595
UGCUGUUUACCAUUCUAUC,PDHA2,1.057
AUACGAACAGUCAAUGACC,CTSO,-0.3489
AGCGCGAACAGAGAGUAGG,PQLC2,-0.28
UACGGAGUUUGAGACAUUC,MCEMP1,-0.5536
UUUCGGUCAAGAUGAAAUC,GSTT2,0.02285
UUUCUGAUAGCAGUACUUG,BTLA,0.939
UUGAGGACAAACCAGCAUC,FAM109B,0.01873
UCAUCAGUGACUUCAAGUC,PPM1A,-1.321
UUGGUUCCACGACUCUUCC,HNRNPA1P35,-0.4319
UUCUAAAGGAGUUAUAUCC,CCDC90B,1.255
AAGUCGAUCAAUAUCUCUC,ARG2,-0.1973
AUGUCUUGAAGUGCUCUGC,CACTIN,-0.4471
UUAGUCCCAACAUCAGAUC,DZANK1,0.008042
UUCGCUUACAUCCUGAACU,GEMIN7,0.361
UGGGUUAGCAAUGAGUCCC,TNPO3,0.4876
UUAUGGUCUAGGUCGACAG,PHF20,0.3134
AAACUUAAAGUCCACAGCU,C3orf56,0.5332
UCUGUUACAAAAUUAAGGG,SLC7A6,-0.3422
UAGGCAUUGAACAAAGAGC,CHRAC1,0.17

The last 4 entries again:

| strand | target gene | seed-corrected z-score |
|---|---|---|
| `UUAUGGUCUAGGUCGACAG` | PHF20 | 0.3134 |
| `AAACUUAAAGUCCACAGCU` | C3orf56 | 0.5332 |
| `UCUGUUACAAAAUUAAGGG` | SLC7A6 | -0.3422 |
| `UAGGCAUUGAACAAAGAGC` | CHRAC1 | 0.17 |

Data taken from PubChem BioAssay AID1159506, deposited by NCATS (2015).